The values below come from publication PMC12040169 (PLOS Biology, 2025).

This assay relates to T1, CTL2-GFP (C. trachomatis L2/434/Bu, GFP-expressing).
T1 construct: L2/434/Bu, GFP-expressing
Details: species or system HeLa; Intracellular C. trachomatis growth in HeLa cells, bulk GFP fluorescence relative to DMSO. The settings on record: bulk GFP, single well, 28.5 h, 10 µM, inhibitor.

Like-named read-outs stand apart in the source and are kept apart here. The list shows a part of the results.

On to `CS(=O)(=O)N1CCCc2cc(-c3csc(N4CCOCC4)n3)ccc21` [CBK305022], for which the “% of control remaining” value came out at 133.161%.
In the case of `COC(=O)c1ccc(NS(=O)(=O)c2cc(Cl)sc2Cl)cc1` [CBK028684], the “% of control remaining” value was determined as 98.7188%.
As to `CC(C)OC(=O)c1ccc(NC(=O)c2csc3c2CCCC3)cc1` [CBK058649], the “% of control remaining” value amounted to 132.723%.
In the case of `CCOC(=O)c1nc(C)sc1-c1ccnn1S(C)(=O)=O` [CBK007130], the “% of control remaining” value is reported as 147.807%.
The same measure, in the same setting: next, `CC(C)NC(=O)N[C@H]1CCN2C(=O)c3cc(-c4ccccc4)ccc3NC(=O)[C@H]12` [CBK289351]: 111.579%.
As for `CC(C)C(c1nnnn1Cc1ccccc1)N1CCOCC1` (stereo not drawn) [CBK028054], the “% of control remaining” value is 108.525%.
As to `COc1nccnc1N1CCN(CCSC)CC1` [CBK084227], the “% of control remaining” value turned out to be 130.696%.
Regarding `Cc1csc(C(Cc2cccs2)NC(=O)Cc2c(C)[nH]c(=O)[nH]c2=O)n1` (stereo not drawn) [CBK286345], the “% of control remaining” value is given as 104.761%.
Take `Cc1cccc(CSc2nc3ncccc3[nH]2)c1` [CBK287963]: the “% of control remaining” value was 141.947%.
Regarding `C[C@H](Nc1nc(-c2ccc(-c3ccccc3)cc2)cnc1N)c1ccccc1` [CBK063760], the “% of control remaining” value turned out to be 146.823%.
Regarding `CC(=O)N1CCC(N2CC[C@H](c3nnc(C(C)(C)C)o3)C2)CC1` [CBK289404], the “% of control remaining” value came out at 123.616%.
With `O=C(CN1CCOCC1)N1CCN(CCc2ccccc2)CC1` [CBK200215], the “% of control remaining” value is reported as 106.203%.
`O=C(O)c1ccccc1SC(C[N+](=O)[O-])c1ccccc1Cl` (stereo not drawn) [CBK097071]: the “% of control remaining” value is reported as 89.4338%.
The same measure, in the same setting: in the case of `Cc1nc(C2CCCCN2C(=O)COc2ccccc2)ncc1C(=O)Nc1ccc(F)cc1` (stereo not drawn) [CBK285871] it was 128.833%.
`O=S(=O)(Nc1cccc2nonc12)c1ccccc1Br` [CBK062577]: the “% of control remaining” value stood at 102.509%.
For the compound `O=[N+]([O-])c1cc([N+](=O)[O-])c2cccnc2c1NNc1nncc2ccccc12` [CBK110409], the “% of control remaining” value came to 40.507%.
Consider `N#Cc1ccc(CNC2(Cc3cc(CO)on3)COC2)cc1` [CBK289647], for which the “% of control remaining” value came to 160.202%.
`CN(C)C(=O)CN1N=C(C(C)(C)C)Cn2c(cc3ccccc32)C1=O` [CBK284210]: the “% of control remaining” value came to 108.241%.
`CC(SCc1ccccc1)C(=O)NCc1ccnc(OCC(F)(F)F)c1` (stereo not drawn) [CBK298325]: the “% of control remaining” value was determined as 121.436%.
Consider `O=C(CCN1CCOCC1)Nc1ccc(Br)cc1C(=O)c1ccccc1` [CBK263165], for which the “% of control remaining” value turned out to be 102.314%.
Take `N/C(=N\OC(=O)COc1cccc2ccccc12)c1ccccn1` [CBK262999]: the “% of control remaining” value was determined as 118.629%.
As to `CCC(NC1CCc2nc(C)cn2C1)c1ccccc1O` (stereo not drawn) [CBK306012], the “% of control remaining” value worked out at 179.532%.
Regarding `Cc1c(C(C)N)cnn1-c1ccc(C#N)cc1` (stereo not drawn) [CBK305869], the “% of control remaining” value is reported as 109.882%.
Turning to `COc1cccc(C(=O)NCC(c2cccs2)N2CCOCC2)c1` (stereo not drawn) [CBK305075], the “% of control remaining” value is 141.123%.
In the case of `COc1cc(NC(=O)C(C)Oc2ccc(Cl)cc2C)c(C(=O)O)cc1OC` (stereo not drawn) [CBK266430], the “% of control remaining” value came out at 125.086%.
`C/C(=N\N=C1/NC(=O)C(CC(=O)O)S1)c1ccc(CC(C)C)cc1` (stereo not drawn) [CBK006661]: the “% of control remaining” value was 112.033%.
Take `CN(C)c1nc(Oc2ccc(OCCOc3ccccc3)nn2)nc(N(C)C)n1` [CBK264976]: the “% of control remaining” value was 114.41%.
Turning to `CC(C)(Oc1ccc(Cl)cc1)C(=O)Nc1ccc(CN2C(=O)CNC2=O)cc1` [CBK296668], the “% of control remaining” value came out at 120.134%.
The same measure, in the same setting: in the case of `Cc1sc2nc(SCC(=O)NCCO)nc(N)c2c1C` [CBK264423] it was 119.8%.
Turning to `CC(Sc1nncs1)C(=O)N1CCCc2ccccc21` (stereo not drawn) [CBK304871], the “% of control remaining” value stood at 104.29%.
For `COc1ccc2[nH]cc(/C=C3\C(=O)Nc4ncccc43)c2c1` [CBK017826], the “% of control remaining” value turned out to be 115.911%.
`CCc1c(C)nn(-c2ccccc2Cl)c1-c1ccccc1` [CBK016736]: the “% of control remaining” value amounted to 148.889%.
For the compound `O=S(=O)(N1CCCCCC1)N1CCNCC1` [CBK269219C], the “% of control remaining” value turned out to be 139.485%.
With `O=C1NC2(CCN(C(=O)C3CCCC3)CC2)Nc2ccccc21` [CBK283962], the “% of control remaining” value is recorded as 94.4544%.
Same read-out and setting: in the case of `COc1ccc2[nH]cc(CCNC(=O)c3ccco3)c2c1` [CBK116204] it was 98.3933%.
Take `CC(C)N1CCC(=NNC(=O)C(O)c2ccccc2)CC1` (stereo not drawn) [CBK019361]: the “% of control remaining” value is listed as 106.593%.
With `CCOc1ccc(C(C)(CC(N)=O)C(=O)O)cc1` (stereo not drawn) [CBK286778], the “% of control remaining” value is on record as 125.618%.
On to `O=C1NC(=O)C2(CCN(C(=O)c3csc4c3CCCC4)C2)N1` (stereo not drawn) [CBK305533], for which the “% of control remaining” value amounted to 133.967%.
`Cc1sc(NC(=O)c2ccc(F)cc2Cl)c(C(=O)NCc2cccnc2)c1C` [CBK270319]: the “% of control remaining” value was found to be 153.774%.
Still for that read-out and setting: in the case of `O=C(N[C@@H]1CNCCC[C@H]1O)c1ccc(OCc2ccccc2)cc1` [CBK289064] it was 117.106%.
Take `OCc1cccc(-c2cc(NCc3ccccc3)n3nccc3n2)c1` [CBK037113]: the “% of control remaining” value is recorded as 83.6429%.
Turning to `CN1CCC[C@H]1c1nc(-c2ccnc(NS(C)(=O)=O)c2)no1` [CBK288884], the “% of control remaining” value came out at 139.091%.
On to `CCN(C)S(=O)(=O)c1ccc(Cl)c(Cl)c1` [CBK045392], for which the “% of control remaining” value came to 143.083%.
On the same count and under the same terms, next, `Cc1nc2c(c(=O)[nH]1)CN(Cc1ccc(F)cc1)CC2` [CBK284009]: 127.262%; `COc1ccc(OC)c(NC(=O)CSc2nnc(-c3cccnc3)s2)c1` [CBK269043]: 115.524%.
As for `O=C(c1cc(CC2(NCc3ccc(F)cc3)COC2)no1)N1CCCCC1` [CBK289657], the “% of control remaining” value worked out at 159.403%.
Consider `O=S(=O)(NCC(c1ccccc1)N1CCNCC1)c1ccccc1` (stereo not drawn) [CBK262813], for which the “% of control remaining” value was determined as 114.316%.
Still for that read-out and setting: next, `CC(C)Cn1cncc1CNC(=O)Nc1ccc2[nH]nnc2c1` [CBK306549]: 77.5333%; `Nc1ncnc2c1nc(Br)n2[C@H]1C[C@@H](O)[C@@H](CO)O1` [CBK201240]: 118.192%; `COc1ccc2c(c1)CCN(C(=O)C1CCc3nn(C)c(=O)n3C1)C2` (stereo not drawn) [CBK307613]: 151.244%.
Take `O=c1cc(N2CCOCC2)oc2cccc(O)c12` [CBK016536]: the “% of control remaining” value came to 100%.
Same read-out and setting: in the case of `Cc1cc(C)n(CCCC(=O)NCCc2cn3ccccc3n2)n1` [CBK304414] it was 137.588%; in that of `O=C(NCCOc1ccccc1)N1CCN(c2ccc(F)cc2)CC1` [CBK156416], 109.136%; in that of `Cc1nc(C2CC(O)C2)cc(N2CCC(C(=O)N3CCOCC3)CC2)n1` (stereo not drawn) [CBK307675], 163.159%.
The same measure, in the same setting: in the case of `COc1ccc(-c2ccc(CCC(=O)O)n2Cc2ccco2)cc1` [CBK265945] it was 100%; in that of `Cc1nnc2sc(-c3ccncc3)nn12` [CBK269553], 144.948%.
As for `CC1(C)C[C@H](NC(=O)C2CC2)[C@@]2(CCC(=O)N3CCCC3)CC[C@](C)(O)C[C@@H]12` [CBK289044], the “% of control remaining” value turned out to be 118.989%.
Regarding `Cn1cc(C2CCCCCN2C(=O)c2ccc(F)cc2)cn1` (stereo not drawn) [CBK284913], the “% of control remaining” value was found to be 154.021%.
On to `O=C(Nc1cccnc1)c1ncoc1-c1ccc(F)cc1` [CBK104357], for which the “% of control remaining” value came to 152.36%.
With `CCN(CC)CCNC(=O)N(CC)Cc1ccncc1` [CBK155151], the “% of control remaining” value is on record as 97.5874%.
Regarding `CCC(CNC(=O)c1coc(COc2ccc3sc(C)nc3c2)n1)OC` (stereo not drawn) [CBK307248], the “% of control remaining” value is reported as 139.687%.
For the compound `Nc1ncc(-c2cccc3ccccc23)nc1NC1CCCCC1` [CBK063588], the “% of control remaining” value is reported as 127.347%.
Turning to `CC1=CC(C)C(C(=O)O)C(C(=O)N2CCN(C)CC2)C1` (stereo not drawn) [CBK027311], for the setting “Bulk GFP fluorescence”, the “% of control remaining” value is listed as 97.1773%.
`COc1cc(C)ccc1S(=O)(=O)n1cnc2cc(C)c(C)cc21` [CBK287580]: the “% of control remaining” value turned out to be 139.023%.
With `O=C(NCCc1noc(CO)n1)N(Cc1ccsc1)C1CCCCC1` [CBK307273], the “% of control remaining” value is given as 103.177%.
`O=C(Nc1cccc(-c2nc3ncccc3o2)c1)c1ccc(OCc2ccccc2)cc1` [CBK263139]: the “% of control remaining” value came to 112.493%.
Same read-out and setting: in the case of `O=C(Cc1c[nH]c2ccccc12)N1CCC2(CCN(C(=O)CC3CCCCC3)C2)C1` (stereo not drawn) [CBK131422] it was 107.486%; in that of `CCCc1nnc([C@H]2CCN(Cc3ccc(S(C)(=O)=O)cc3)C2)o1` [CBK289402], 102.004%; in that of `COC(=O)CNC(=O)c1ccc(S(=O)(=O)N2CCCC2)cc1` [CBK264880], 100%.
In the case of `CC1=C[C@@H](CO)[C@H](C(C)C)C[C@H]1Cc1nnc(-c2ccc(N(C)C)cc2)o1` [CBK289224], the “% of control remaining” value is on record as 87.4533%.
With `CN(C)c1cccc(-c2cc(NC3CCCCC3)ncn2)c1` [CBK090900], the “% of control remaining” value is 147.241%.
Consider `O=C(O)CCC(=O)N1CCN(C2CCCCC2)CC1` [CBK286918], for which the “% of control remaining” value is on record as 89.8755%.
Consider `Cc1cc(C)nc(SCc2nc(N)nc(-c3ccccc3O)n2)n1` [CBK266725], for which the “% of control remaining” value was 165.286%.
`Cc1cccn2c(=O)c(/C=C3\SC(=S)NC3=O)c(NCCCN3CCOCC3)nc12` [CBK264904]: the “% of control remaining” value worked out at 100%.
Regarding `c1ccc(-c2csc3ncnc(-n4cnc5ccccc54)c23)cc1` [CBK264494], the “% of control remaining” value came out at 99.7565%.
For `Nc1nnc(Sc2nccc(C(F)(F)F)n2)s1` [CBK020023], the “% of control remaining” value was 106.801%.
On the same count and under the same terms, in the case of `Cc1ccc(C(=O)NC(=S)Nc2ccc(C(=O)O)c(Cl)c2)cc1Cl` [CBK265068] it was 108.328%; in that of `COC(=O)CCc1ccc(S(=O)(=O)N2CCCN(Cc3c[nH]c(=O)[nH]c3=O)CC2)cc1` [CBK063082], 77.4726%; in that of `N#Cc1ccc(CN2CCCCC2c2[nH]ncc2C(N)=O)c(Cl)c1` (stereo not drawn) [CBK304261], 111.014%.
With `Cc1cccc(CN2CCC(NC(=O)c3cn(C(C)(C)C)nn3)CC2)c1` [CBK305927], the “% of control remaining” value turned out to be 101.182%.
Take `C=CCn1c(-c2sc(NC(=O)CNC(=O)C(C)(C)C)nc2C)n[nH]c1=S` [CBK297907]: the “% of control remaining” value was determined as 108.538%.
